For at least one compound, name, drawing or mass did not settle the structure.
Tested on: global apraxia/dyspraxia
Test: Case study Patient A: clinical observation of speech, coordination, tone and sensory symptoms
Assay type: in vivo, human
Details: oral, used for allergic reactions and asthma exacerbations triggered by food allergy

## C[C@@H]1C[C@H]2[C@@H]3CCC4=CC(=O)C=C[C@]4(C)[C@@]3(F)[C@@H](O)C[C@]2(C)[C@@]1(O)C(=O)CO [dexamethasone]
  speech, coordination and behavior: improvement in speech, coordination and behavior

— patent publication US10398671B2, “Fatty acid formulations and methods of use thereof” (Children's Hospital & Research Center at Oakland, priority 2007, dated 2019)
